Data from patent US9371521B2, “Substituted pyrazinedithiol reducing agents” (Wisconsin Alumni Research Foundation, priority 2014, dated 2016).

Assay: Equilibrium reaction with oxidized βME
Format: physicochemical
Details: excess reduced BMMP, 24 h, pH 7.0, HPLC

SCc1nccnc1CS [BMMP, 2,3-bis(mercaptomethyl)pyrazine]
Extent of reduction of βMEox at equilibrium: quantitative reduction; also recorded: complete reduction

Entries after “also recorded” stand apart in the source; their conditions may differ.
